{"source": "paper PMC9977887", "about": "“Crocodile defensin (CpoBD13) antifungal activity via pH-dependent phospholipid targeting and membrane disruption” (Nature Communications, 2023)", "assay": "Chemical crosslinking with BS(PEG)5 in the presence of PA", "conditions": "SDS-PAGE"}
{"substance": "CpoBD13: saltwater crocodile β-defensin 13, histidine-rich, three disulphide bonds, recombinantly expressed in Pichia pastoris (NGSYYSTLQCRNNHGHCRRLCFHGEQWIGNCNGRHQHCCK)", "values": [{"measurement": "oligomeric state after crosslinking", "setting": "0 and 23 µM PA", "value": "clear dimers"}, {"measurement": "oligomeric state after crosslinking", "setting": "115 µM PA", "value": "multimeric complexes up to the size of pentamers"}]}
